Binding signal data for 40 sequences are collected here from article PMC7862700.

This is a selection; strong and weak results do not stand in their true shares. At the low end of the ranking, values are background and their order means little.

The assay deals with T1, ERG (UniProt P11308).
T1 sequence: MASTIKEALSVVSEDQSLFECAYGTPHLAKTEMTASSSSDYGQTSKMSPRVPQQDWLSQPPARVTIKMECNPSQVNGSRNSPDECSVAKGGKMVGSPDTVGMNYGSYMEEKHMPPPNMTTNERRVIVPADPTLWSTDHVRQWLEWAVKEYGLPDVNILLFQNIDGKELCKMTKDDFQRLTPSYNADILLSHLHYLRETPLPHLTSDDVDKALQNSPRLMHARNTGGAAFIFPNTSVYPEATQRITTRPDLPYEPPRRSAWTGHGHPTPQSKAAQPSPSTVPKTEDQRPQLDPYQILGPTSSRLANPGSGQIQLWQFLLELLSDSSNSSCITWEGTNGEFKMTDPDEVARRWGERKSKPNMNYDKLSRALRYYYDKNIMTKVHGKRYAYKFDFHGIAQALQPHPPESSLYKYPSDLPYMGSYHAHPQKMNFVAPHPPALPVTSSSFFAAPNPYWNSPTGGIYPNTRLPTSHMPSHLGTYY
Kind of assay: DAPPL (digital affinity profiling via proximity ligation, sequencing). Conditions: 10 mM Tris-HCl pH 7.5, 50 mM NaCl, 1 mM DTT, 4% glycerol, room temperature, 30 min; GST-TFs on glutathione beads, 16-mer random dsDNA library, 0.1% …; high values mean tight binding; double strand, one strand shown; scale: fold enrichment (6-mer frequency, TF over GST control).
The sequence CTATTA gave a binding signal of 1.07.

Sequence CGATGC displayed a binding signal of 1.08.

In turn, GCTAGG returned a binding signal of 0.985.

With TTGAGG, the binding signal came out at 1.06.

The sequence ACAATT gave a binding signal of 1.32.

TGTTGC returned a binding signal of 1.3.

In turn, GATGTA showed a binding signal of 1.27.

For GGTCTG, the binding signal is 0.973.

GTTTGT yielded a binding signal of 0.926.

Take CCACAA: the binding signal was 1.09.

With GTCCCA, the binding signal stood at 1.17.

TCTGGC had a binding signal of 1.27.

Consider TTTTTC, for which the binding signal was 1.14.

The sequence CTGGTA displayed a binding signal of 1.4.

The sequence ACTCCG showed a binding signal of 1.43.

With CCGCCG, the binding signal came out at 1.37.

The sequence CCCACT registered a binding signal of 1.35.

As for CACAAG, the binding signal was 1.09.

For ATTTAG, the binding signal turned out to be 1.02.

The sequence ATTTTA gave a binding signal of 1.29.

In turn, TTGTTC yielded a binding signal of 1.34.

Consider TCATCG, for which the binding signal was 0.998.

CGACCA returned a binding signal of 1.15.

Sequence CTCGAG returned a binding signal of 1.31.

AGGAAG: the binding signal worked out at 1.63.

Take GTATCT: the binding signal was 1.14.

In turn, GCGCGC had a binding signal of 0.935.

The sequence TCACGG yielded a binding signal of 1.02.

CCGCAA: the binding signal came to 1.28.

For TTGCAA, the binding signal was 1.08.

TGTGGT yielded a binding signal of 1.07.

As to CTTCAC, the binding signal stood at 1.45.

TGCCCA had a binding signal of 1.14.

In the case of GAAGTG, the binding signal stood at 1.87.

TTCAAC registered a binding signal of 1.26.

As for ACCTTG, the binding signal worked out at 1.1.

Sequence CGTAAA had a binding signal of 1.13.

For the sequence CCCCCC, the binding signal was 1.07.

The sequence TTTGTA yielded a binding signal of 1.53.

TACAAT came in with a binding signal of 1.29.
